Here are results for twelve compounds from PubChem BioAssay AID330 (DTP/NCI, 2004).

This assay deals with P388 leukemia ip, CD2F1 mice, survival T/C. Briefly: NCI In Vivo Anticancer Drug Screen. Data for tumor model P388 Leukemia (intraperitoneal) in CD2F1 (CDF1) mice. The note with it: T/C endpoint: median survival time, higher T/C = longer survival.
Setting [1] is: dose: 200.0 mg/kg/injection, schedule: Q01DX005 (ip), vehicle: saline with Tween-80.
Where [2] appears, read: dose: 200.0 mg/kg/injection, schedule: Q01DX009 (ip), vehicle: saline with Tween-80.
Where [3] appears, read: dose: 400.0 mg/kg/injection, schedule: Q01DX009 (ip), vehicle: saline with Tween-80.
Setting [4] is: dose: 100.0 mg/kg/injection, schedule: Q01DX005 (ip), vehicle: saline with Tween-80.
[5] abbreviates: dose: 100.0 mg/kg/injection, schedule: Q01DX009 (ip), vehicle: saline with Tween-80.

The list does not hold the whole screen: it gathers tests that were run many times, whatever their T/C, doses with no T/C, and many T/C values between a quarter and a half above the control. Further doses and runs are listed elsewhere. T/C is the treated group as % of the vehicle group. Some doses have a count of surviving animals in place of a T/C: the source holds a T/C of zero for them, seemingly a mark for toxic or unscored doses. Some doses without a T/C left all or most animals alive at the check, yet need not have been tolerated: survival well below the control is almost never listed, so the zero probably covers shortened survival too. Survivors were counted at the toxicity check, usually on the fifth day, unless a day is given; later deaths do not show. Schedule codes are those of the source, read here as Q, the interval in days (D) or hours (H), X, the number of doses. For survival time, this PubChem deposit counts one and a half times the control or more as active, and values a quarter to a half above the control carry no call in these data; other NCI protocols may use other cut-offs. Some entries were tested several times; the results are listed from low to high.

Regarding `NS(=O)(=O)c1ccc(N=c2c3ccccc3n(Cc3ccccc3)c3ccccc23)cc1`, the survivor count under setting [1] was 0 of 6.

In the case of `COc1ccc2c(c1OC)C(=O)OC2c1cc(Br)c(O)c(C2OC(=O)c3c2ccc(OC)c3OC)c1` (centres undefined), the survivor count reads like this: (dose: 25.0 mg/kg/injection, schedule: Q01DX009 (ip), vehicle: saline with Tween-80) 6 of 6; under setting [2], 6 of 6; (dose: 200.0 mg/kg/injection, schedule: Q04DX003 (ip), vehicle: saline) 6 of 6; under setting [3], 6 of 6.

For the compound `CN(/N=C/c1ccc(Cl)cc1)P(=O)(N1CC1)N1CC1`, the T/C runs as follows: (dose: 25.0 mg/kg/injection, schedule: Q01DX005 (ip), vehicle: saline with Tween-80) 134 % of control; under setting [4], 125 % of control. In addition, the survivor count under setting [1] was 4 of 6.

As to `CCOP1(=O)CCCCN1Cc1ccccc1` (centres undefined), the survivor count (dose: 200.0 mg/kg/injection, schedule: Q01DX009 (ip), vehicle: saline) is listed as 2 of 6.

Regarding `O=C1C(Br)=CC(=NCl)C=C1Br`, where the note is “dose: 50.0 mg/kg/injection, schedule: Q01DX009 (ip), vehicle: saline with Tween-80”, the survivor count was 3 of 6.

Take `CCN(CC)c1ccc2cc(S(=O)(=O)c3ccc(C)cc3)c(=O)oc2c1`: the survivor count under setting [4] is reported as 5 of 6 and the survivor count under setting [1] is reported as 6 of 6.

With `CC(C)C12C=CC(C)(CC1)OO2` (centres undefined), the survivor count under setting [5] is reported as 0 of 6, the survivor count under setting [2] is 0 of 6 and the survivor count under setting [3] is given as 0 of 6.

Take `CNCCN=c1ccc2c3c1c(O)c1c(O)ccc(=O)c1c3[nH]n2CCNCCO`: the T/C (dose: 0.39 mg/kg/injection, schedule: Q04DX002 (ip), vehicle: water) is 145 % of control and the T/C (dose: 0.78 mg/kg/injection, schedule: Q04DX002 (ip), vehicle: water) is 147 % of control. Also, the survivor count runs as follows: (dose: 25.0 mg/kg/injection, schedule: Q04DX002 (ip), vehicle: water) 4 of 6; (dose: 50.0 mg/kg/injection, schedule: Q04DX002 (ip), vehicle: water) 0 of 6; (dose: 100.0 mg/kg/injection, schedule: Q04DX002 (ip), vehicle: water) 1 of 6.

For `O=NNc1ccnc(-c2cc(NN=O)ccn2)c1`, the T/C is 134 and 141 % of control (dose: 12.5 mg/kg/injection, schedule: Q01DX009 (ip), vehicle: water); 129 and 133 % of control (dose: 25.0 mg/kg/injection, schedule: Q01DX009 (ip), vehicle: water); 130 and 132 % of control (dose: 50.0 mg/kg/injection, schedule: Q01DX009 (ip), vehicle: water).

With `CN1CCC(O)(c2ccc(Br)cc2)C(C(=O)c2ccc(Br)cc2)C1` (centres undefined), the survivor count was 6 of 6 (dose: 100.0 mg/kg/injection, schedule: Q01DX005 (ip), vehicle: Klucel (hydroxypropylcellulose) (HPC)) and 6 of 6 (dose: 200.0 mg/kg/injection, schedule: Q01DX005 (ip), vehicle: Klucel (hydroxypropylcellulose) (HPC)).

Regarding `Cc1[nH]c(=O)nc(Nc2ccc(Cl)cc2)c1C(=O)N1CCN(CCO)CC1`, the survivor count is, setting by setting: (dose: 30.0 mg/kg/injection, schedule: Q01DX005 (ip), vehicle: saline with Tween-80) 6 of 6; (dose: 60.0 mg/kg/injection, schedule: Q01DX005 (ip), vehicle: saline with Tween-80) 6 of 6.

As to `Cc1cnc2c(N)cc(C)c(C)c2c1`, the survivor count runs as follows: under setting [5], 1 of 6; under setting [2], 0 of 6.
